# This is one part of the list. Further columns of the screen follow, without active or inactive calls. Compounds called inactive in the main read-out are mostly missing here. The note in brackets gives the kind of curve behind each potency; many fits are weak.
# Assay: qHTS Assay to Find Inhibitors of Chronic Active B-Cell Receptor Signaling
# Details: ABC-DLBCL IkBa-CBG/CBR reporter, luminescence ratio (green luciferase fused to IkBa over red control in TMD8 lymphoma cells), 4 h
# Summary of the method: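 Doxycycline induced both beetle luciferases in TMD8 lymphoma cells; IKK-driven degradation limits the IkappaBalpha-fused green signal, while red luminescence normalises for cell number and nonspecific effects. Compounds tested up to 46 uM, 4 hrs.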
# [1] = measured here: CBR red luminescence, cell number
# [2] = measured here: IkBa-CBG green luminescence
SMILES,AC50 [1],AC50 [2]
O=C1/C(=C/c2ccccc2Cl)SC(=S)N1CCCC(=O)N(CCO)c1ccccc1,"8.91 µM [falling, partial curve, poor fit]",
Cc1c(C=O)c2ccccn2c1C(=O)c1ccccc1,"29.1 µM [rising, single point]",
CCOC(=O)C1C(c2ccc(O)c(O)c2)NC(=S)NC1(O)C(F)(F)F (configuration not stated),"20.6 µM [rising, partial curve]",
CCCc1cc(=O)oc2c(C)c(OCC(=O)NC3CC(C)(C)NC(C)(C)C3)ccc12,"12.6 µM [rising, single point]",
CCOc1ccc(N(CC(=O)NCCOc2ccccc2OC)S(=O)(=O)c2ccccc2)cc1,"25.1 µM [falling, single point]",
CCCn1c(N)c(C(=O)CSc2nncs2)c(=O)[nH]c1=O,,"29.1 µM [falling, partial curve, poor fit]"
Cc1ccc2nc(CSc3nnc(Nc4ccccc4C)s3)cc(=O)n2c1,"16.4 µM [falling, single point]",
COc1cc(N=c2ssnc2Cl)cc(OC)c1,"2.06 µM [falling, partial curve, poor fit]",
CCOC(=O)c1ccc(NC(=O)CCC(=O)OC)cc1,"1.3 µM [falling, full curve]",
Nc1nc(-c2cccs2)c(CC(=O)O)s1,"22.4 µM [falling, single point]",
O=C(c1nnc(-c2ccccc2)o1)C1CC1,"7.94 µM [rising, partial curve, poor fit]",
COc1cccc(/C=C/C(=O)c2ccc[nH]2)c1,"23.1 µM [falling, single point]",
Clc1cc(Br)ccc1OCCN1CCOCC1,"11.6 µM [rising, single point]",
CC(=O)c1ccccc1NC(=O)CSc1n[nH]c(=O)n1C1CC1,"25.9 µM [falling, single point]",
COc1ccc(OC)c(N=c2oc3cc(O)ccc3cc2C(N)=O)c1,"0.398 µM [falling, full curve, poor fit]",
CCc1nnc(SCC(=O)Nc2ccc(NC(C)=O)cc2)n1-n1cccc1,"29.1 µM [rising, single point]",
Cc1ccc(S(=O)(=O)N(Cc2ccc(Cl)cc2)c2ccccc2C(=O)NCc2ccco2)cc1,"10.3 µM [falling, partial curve]","23.1 µM [rising, partial curve, poor fit]"
Clc1ccc(C2=NCCn3nc4ccccc4c32)cc1,"20.6 µM [falling, partial curve, poor fit]",
CCCCNC(=O)/C=C1\Sc2ccccc2NC1=O,"13 µM [falling, single point]",
Cc1[nH]nc2oc(=O)c(CCO)c(C)c12,"1.16 µM [rising, full curve, poor fit]",
CC(C)(C)OC(=O)N1CCCC(C(=O)Nc2ccc(C(=O)N3CCCC3)cc2)C1 (configuration not stated),"10.3 µM [rising, partial curve, poor fit]",

# Taken from above.
# Value for `COc1cc(N=c2ssnc2Cl)cc(OC)c1` under AC50 [1]: 2.06 µM [falling, partial curve, poor fit]
# Value for `Cc1[nH]nc2oc(=O)c(CCO)c(C)c12` under AC50 [1]: 1.16 µM [rising, full curve, poor fit]
# Value for `Cc1ccc2nc(CSc3nnc(Nc4ccccc4C)s3)cc(=O)n2c1` under AC50 [1]: 16.4 µM [falling, single point]

# More structures:

SMILES,AC50 [1],AC50 [2]
O=C(c1ccc(-c2ccc([N+](=O)[O-])cc2)o1)N1CCCCCCC1,"1.64 µM [rising, full curve, poor fit]",
O=C(CCCN1C(=O)/C(=C/c2ccccc2Cl)SC1=S)NNC(=O)c1ccccc1,"2.06 µM [falling, full curve]",
CCN(CC)c1ccc(/C=N/NC(=O)Cc2cccs2)cc1,,"13 µM [falling, partial curve, poor fit]"
CCOc1ccc(C(=O)N/N=C(/C)C2C(=O)c3ccccc3C2=O)cc1,"8.2 µM [falling, partial curve]","25.9 µM [falling, single point]"
COc1ccccc1-n1ccn(CC(=O)Nc2ccc(C)cc2Cl)c(=O)c1=O,"5.8 µM [falling, full curve, poor fit]",
COc1cc(C2C3=C(CCCC3=O)OC3=C2C(=O)CCC3)ccc1OCC(=O)Nc1ccccc1,"20 µM [falling, partial curve, poor fit]",
CCOc1ccc(NC(=O)CN(C)C(=O)C2CCN(c3ncnc4sc(C)c(C)c34)CC2)cc1OCC,"11.2 µM [falling, partial curve]",
O=C(NCCCc1ccccc1)C(=O)c1c[nH]c2ccccc12,"0.794 µM [falling, full curve, poor fit]",
CCCCNC(=O)COC(=O)c1c2c(nc3ccccc13)/C(=C/c1cccs1)CC2,"16.4 µM [falling, partial curve, poor fit]",
CC(=O)Nc1ccc(S(=O)(=O)Nc2nc3ccccc3nc2Nc2cccc(S(N)(=O)=O)c2)cc1,"14.1 µM [rising, partial curve]",
CC(=O)N(C)C1=C(N2CCOCC2)C(=O)c2ccccc2C1=O,"14.1 µM [falling, single point]",
O=C(CN(Cc1ccc2c(c1)OCO2)C(=O)CNC(=O)c1ccco1)NC1CCCCC1,"35.5 µM [rising, single point]",
O=C(O)c1cccc(Cn2c(Cl)c(/C=N/NC(=O)c3ccccc3Cl)sc2=O)c1,"2 µM [falling, full curve]",
CCCc1cc(=O)[nH]c(SCC(=O)Nc2ccc(S(=O)(=O)N3CCCC3)cc2)n1,"20.6 µM [rising, single point]",
O=C(N/N=C/c1ccccc1OCc1ccccc1Cl)c1cccnc1,,"14.1 µM [falling, partial curve, poor fit]"
Cc1c(Cl)cnc(NC(=O)CSc2nnc(C)n2Cc2ccccc2)c1Cl,"0.517 µM [falling, partial curve, poor fit]",
COc1ccccc1OCC(=O)Nc1ccc(N2CCOCC2)cc1N1CCOCC1,"29.1 µM [rising, single point]",
Cc1ccccc1C(=O)Nc1cccc(C(=O)N/N=C/c2ccccn2)c1,"8.91 µM [falling, partial curve, poor fit]",
COc1ccc(Cl)cc1NC(=S)N(CCCN1CCOCC1)Cc1cn(C)c2ccccc12,"0.731 µM [falling, full curve, poor fit]",
Cc1ccc(NC(=O)CCn2cccc2)cc1,"0.0731 µM [rising, full curve, poor fit]",
O=C(NC(=S)N1CCCc2ccccc21)c1ccc(Br)cc1,"8.2 µM [falling, partial curve]",

SMILES,AC50 [1],AC50 [2]
Cc1ccc(-c2nc(C(Cl)Cl)c3ccccc3n2)cc1,"11.2 µM [rising, partial curve]","22.4 µM [falling, single point]"
COc1ccc(/C=N/NC(=O)c2ccc(COc3ccccc3Cl)o2)cc1,"0.708 µM [falling, full curve]",
N/C(=N\OC(=O)c1cc(Cl)ccc1Cl)c1ccncc1,"4.47 µM [falling, full curve, poor fit]",
Cc1ccc(NC2CCCN(C(=O)C3CCCCC3)C2)cc1C (configuration not stated),"35.5 µM [falling, single point]",
O=C(CSc1nnc(Cn2nnc(-c3ccccc3)n2)n1-c1ccccc1)Nc1ccccc1,"25.1 µM [falling, partial curve, poor fit]",
CCCCC#Cc1ccc(C(=O)NNC(=O)Nc2ccccc2)o1,"14.1 µM [falling, partial curve, poor fit]",
COc1ccccc1/C=C1\Cc2ccccc2C1=O,"11.2 µM [falling, partial curve]",
CC(C)(C)N(NC(=O)Nc1ccc(Cl)c(Cl)c1)C(=O)c1ccccc1,"22.4 µM [falling, single point]","35.5 µM [rising, partial curve, poor fit]"
Cc1ccc(NC(=O)CSc2nnc(-c3ccc(S(=O)(=O)N4CCCC4)cc3)o2)cc1C,"0.708 µM [rising, full curve, poor fit]",
Cc1cccc2[nH]c3c(N4CCC5(CC4)OCCO5)ncnc3c12,"2.82 µM [falling, full curve]",
O=C(c1cc2c(=O)oc3ccccc3c2s1)N1CCOCC1,"2.91 µM [falling, full curve, poor fit]",
COc1ccc(C2CC(c3ccccc3)=NN2C(=O)CSc2ncn[nH]2)cc1 (configuration not stated),"1.58 µM [rising, full curve]",
COc1ccc(-n2nc(C(=O)N3CCN(Cc4ccc5c(c4)OCO5)CC3)c3ccccc3c2=O)cc1,"0.0731 µM [rising, full curve, poor fit]",
CC(C)(C)c1cc(C(=O)NNC(=O)Nc2ccccc2)n(Cc2ccccc2)n1,"22.4 µM [falling, single point]",
C=CCN1C(=O)c2ccc(C(=O)N3CCC(C(=O)OCC)CC3)cc2C1=O,"0.146 µM [rising, full curve, poor fit]",
COc1ccc(NC(=O)c2sccc2SCc2cccc(C(F)(F)F)c2)cc1,"5.8 µM [falling, partial curve, poor fit]",
COc1cccc(/C=C2\SC(=O)N(CCC(=O)NC3CCS(=O)(=O)C3)C2=O)c1 (configuration not stated),"5.62 µM [falling, partial curve]",
Cn1c(=O)n(C)c2cc(S(=O)(=O)N3CCCc4ccccc43)ccc21,"5.8 µM [rising, partial curve, poor fit]",
O=C(O)c1sccc1SCc1ccc(Cl)c(Cl)c1,"35.5 µM [falling, single point]",
C=CCN1C(=O)/C(=C/c2ccccc2)S/C1=N/c1nccs1,"20.6 µM [rising, partial curve]",
O=C(OC(c1ccc(NS(=O)(=O)c2ccccc2)cc1)(C(F)(F)F)C(F)(F)F)c1ccccc1,"23.1 µM [falling, partial curve]",

# From PubChem BioAssay AID493014 (National Center for Advancing Translational Sciences (NCATS), 2011)
